Results as given in article PMC4527729, “The Inner Membrane Protein PilG Interacts with DNA and the Secretin PilQ in Transformation”.
No constants are given. Whether binding was seen depends on the method and setting. Binding calls can cover weak binding; strength is not graded here.

Experiments:
Experiment in all cases: far-Western, overlay or dot blot; reverse orientation: 1 ug of purified full-length or partial PilG resolved by SDS-PAGE, blotted on nitrocellulose, renatured overnight at 4°C; membrane incubated 3 h with 1 ug purified full-length or partial PilQ in 10 ml renaturing buffer; bound PilQ detected with rabbit antiserum; both purified
[1] = biological target: PilG full-length (PilG_(FL/1-410)) (N. meningitidis MC58)
[2] = biological target: PilG_(1-178) (N. meningitidis MC58)
[3] = biological target: PilG_(1-256) (N. meningitidis MC58)

Measured: binding

B1: PilQ full-length (PilQ_(FL/1-761)) (protein, UniProt Q70M91 25-769)
chain: GNITDIKVSSLPNKQKIVKVSFDKEIVNPTGFVTSSPARIALDFEQTGISMDQQVLEYADPLLSKISAAQNSSRARLVLNLNKPGQYNTEVRGNKVWIFINESDDTVSAPARPAVKAAPAAPAKQQAAAPSTKSAVSVSEPFTPAKQQAAAPFTESVVSVSAPFSPAKQQAAASAKQQAAAPAKQQAAAPAKQQAAAPAKQTNIDFRKDGKNAGIIELAALGFAGQPDISQQHDHIIVTLKNHTLPTTLQRSLDVADFKTPVQKVTLKRLNNDTQLIITTAGNWELVNKSAAPGYFTFQVLPKKQNLESGGVNNAPKTFTGRKISLDFQDVEIRTILQILAKESGMNIVASDSVNGKMTLSLKDVPWDQALDLVMQARNLDMRQQGNIVNIAPRDELLAKDKALLQAEKDIADLGALYSQNFQLKYKNVEEFRSILRLDNADTTGNRNTLISGRGSVLIDPATNTLIVTDTRSVIEKFRKLIDELDVPAQQVMIEARIVEAADGFSRDLGVKFGATGKKKLKNDTSAFGWGVNSGFGGDDKWGAETKINLPITAAANSISLVRAISSGALNLELSASESLSKTKTLANPRVLTQNRKEAKIESGYEIPFTVTSIANGGSSTNTELKKAVLGLTVTPNITPDGQIIMTVKINKDSPAQCASGNQTILCISTKNLNTQAMVENGGTLIVGGIYEEDNGNTLTKVPLLGDIPVIGNLFKTRGKKTDRRELLIFITPRIMGTAGNSLRY
binds: all assays above

B2: PilQ_(25-132) (domain or fragment, UniProt Q70M91 25-132)
chain: GNITDIKVSSLPNKQKIVKVSFDKEIVNPTGFVTSSPARIALDFEQTGISMDQQVLEYADPLLSKISAAQNSSRARLVLNLNKPGQYNTEVRGNKVWIFINESDDTVS
binds: all assays above

B3: PilQ_(25-354) (domain or fragment, UniProt Q70M91 25-354)
chain: GNITDIKVSSLPNKQKIVKVSFDKEIVNPTGFVTSSPARIALDFEQTGISMDQQVLEYADPLLSKISAAQNSSRARLVLNLNKPGQYNTEVRGNKVWIFINESDDTVSAPARPAVKAAPAAPAKQQAAAPSTKSAVSVSEPFTPAKQQAAAPFTESVVSVSAPFSPAKQQAAASAKQQAAAPAKQQAAAPAKQQAAAPAKQTNIDFRKDGKNAGIIELAALGFAGQPDISQQHDHIIVTLKNHTLPTTLQRSLDVADFKTPVQKVTLKRLNNDTQLIITTAGNWELVNKSAAPGYFTFQVLPKKQNLESGGVNNAPKTFTGRKISLDFQD
binds: all assays above
